From publication PMC7675183
Results are given in words; binding and its absence hold for the method and conditions named. Binding seen in cells or lysates may run through a third protein. A result given as binding can be weak or reduced; the word gives no strength.

Biological target: histone H2B (mouse (endogenous in BMDMs))
Test: co-IP; endogenous proteins; extracts of BMDMs treated with LPS for the indicated time points; immunoblot

B1: USP38 (enzyme, UniProt Q8BW70 1-1042)
chain: MDKILEGLVSSSHPLPLKRMIVRKVVEFAEHWLDEAQCEAMFDLTTRLILEGQDPFQRQVGHQVLEAYARYHRPEFESFFNKTFVLGLLQQGYHSVDRKDVAILDYIHNGLKLIMSCPSVLDLFSLLQVEVLRMVCERPEPVLCARLSDLLTDFVQCVPKGKLSVTFCQQLVRTIGHFQCVSTQEKELREYVSQVTKVSTLLQNIWKAEPSTLLPSLQEVFASISSTDASFEPSVALASLVQHIPLQMITVLIRSLTTDPNVKDASMTQALCRMIDWLSWPLAQHVDTWVIALLKGLAAVQKFTILIDVTLLKIELVFNRLWFPLVRPGALAVLSHMLLSFQHSPEAFHVIVPHIVNLVHSFRSDGLPSSTAFLVQLTELVHCMMYHYSGFPDLYEPILEAVKDFPKPSEEKIKLILNQSAWTSQSNALASCLSRLSGKSETGKTGLINLGNTCYMNSVLQALFMATEFRRQVLSLNLNGCNSLMKKLQHLFAFLAHTQREAYAPRIFFEASRPPWFTPRSQQDCSEYLRFLLDRLHEEEKILRVQSSHKPSEGLDCAETCLQEVTSKVAVPTESPGTGDSEKTLIEKMFGGKLRTHICCLNCGSTSHKVEAFTDLSLAFCPSPSVEDLSFQDTASLPSAQDDGLMQTSVADPEEEPVVYNPATAAFVCDSVVNQRVLGSPPVEFHCAESSSVPEESAKILISKDVPQNPGGESTTSVTDLLNYFLAPEVLTGENQYYCESCASLQNAEKTMQITEEPEYLILTLLRFSYDQKYHVRRKILDNVSLPLVLELPVKRTASFSSLSQSWSVDVDFTDINENLPKKLKPSGTEEAFCPKLVPYLLSSVVVHSGVSSESGHYYSYARNITGTESSYQMCPQSESLALAPSQSCLLGVESPNTVIEQDLENKEMSQEWFLFNDSRVTFTSFQSVQKITSRFPKDTAYVLLYKKQSRANGIDSDNPASGVWANGDPPLQKELMDAITKDNKLYLQEQELNARARALQAASASCSFRPNGFDDNDPPGSCGPTGGGGGGGFNTVGRLVF
For B1, the binding was “binds”.
